Drawing on paper PMC7862700, this text covers binding signal for 31 sequences.

By UniProt entry, the sequences of proteins in these tests, tags left out. Where a name states a change or a piece, a line headed by the entry shows the natural chain unless it says otherwise.
UniProt Q01892: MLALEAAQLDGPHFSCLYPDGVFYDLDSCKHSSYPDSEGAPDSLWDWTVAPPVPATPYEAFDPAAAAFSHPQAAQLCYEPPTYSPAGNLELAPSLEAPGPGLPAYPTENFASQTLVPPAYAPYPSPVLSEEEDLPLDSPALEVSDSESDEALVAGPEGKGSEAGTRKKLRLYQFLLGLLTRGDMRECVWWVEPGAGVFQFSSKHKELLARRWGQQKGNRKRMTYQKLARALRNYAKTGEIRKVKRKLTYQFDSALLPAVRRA

The list shows a part of the results, in another mix than the full data. At the low end of the ranking, values are background and their order means little.

Common to all, as to assay: DAPPL (digital affinity profiling via proximity ligation, sequencing)
What all share (settings): 10 mM Tris-HCl pH 7.5, 50 mM NaCl, 1 mM DTT, 4% glycerol, room temperature, 30 min; GST-TFs on glutathione beads, 16-mer random dsDNA library, 0.1% …; high values mean tight binding; double strand, one strand shown; scale: fold enrichment (6-mer frequency, TF over GST control)

For one assay, the target named is T1, FLI1 (UniProt Q01543).
T1 sequence: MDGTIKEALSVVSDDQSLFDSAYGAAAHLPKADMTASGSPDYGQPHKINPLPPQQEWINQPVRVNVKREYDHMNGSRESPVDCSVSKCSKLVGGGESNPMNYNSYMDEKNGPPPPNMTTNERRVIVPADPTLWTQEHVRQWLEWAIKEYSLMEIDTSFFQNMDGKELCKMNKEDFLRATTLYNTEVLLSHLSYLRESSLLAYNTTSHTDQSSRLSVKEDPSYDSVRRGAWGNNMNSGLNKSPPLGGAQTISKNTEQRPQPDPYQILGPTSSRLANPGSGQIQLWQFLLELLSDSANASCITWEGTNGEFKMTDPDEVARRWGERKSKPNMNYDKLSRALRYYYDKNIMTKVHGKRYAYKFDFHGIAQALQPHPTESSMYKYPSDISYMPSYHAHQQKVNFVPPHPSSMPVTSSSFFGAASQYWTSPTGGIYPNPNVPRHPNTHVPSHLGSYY

Another assay concerns the target T2, EHF (UniProt Q9NZC4).
T2 sequence: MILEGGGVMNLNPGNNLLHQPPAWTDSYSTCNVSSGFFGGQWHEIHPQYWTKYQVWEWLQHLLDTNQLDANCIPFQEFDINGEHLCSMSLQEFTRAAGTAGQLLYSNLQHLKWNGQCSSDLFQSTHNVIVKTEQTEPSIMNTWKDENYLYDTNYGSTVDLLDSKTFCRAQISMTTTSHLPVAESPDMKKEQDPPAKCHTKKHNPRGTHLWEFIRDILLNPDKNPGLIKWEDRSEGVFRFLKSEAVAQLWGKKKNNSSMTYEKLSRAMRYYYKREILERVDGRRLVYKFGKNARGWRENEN

The target in another assay is SPIB (UniProt Q01892).
In another assay the target is T3, ETV2 (UniProt O00321).
T3 sequence: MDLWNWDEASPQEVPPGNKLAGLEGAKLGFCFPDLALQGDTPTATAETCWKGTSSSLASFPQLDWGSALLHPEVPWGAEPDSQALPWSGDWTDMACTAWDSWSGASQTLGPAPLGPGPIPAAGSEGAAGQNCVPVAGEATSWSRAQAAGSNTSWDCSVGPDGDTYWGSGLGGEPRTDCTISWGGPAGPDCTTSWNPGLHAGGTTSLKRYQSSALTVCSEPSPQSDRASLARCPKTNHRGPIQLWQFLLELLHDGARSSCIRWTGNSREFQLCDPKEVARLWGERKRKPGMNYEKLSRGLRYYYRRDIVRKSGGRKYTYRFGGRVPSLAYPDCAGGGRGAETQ

Another assay concerns the target T4, ETV3L (UniProt Q6ZN32).
T4 sequence: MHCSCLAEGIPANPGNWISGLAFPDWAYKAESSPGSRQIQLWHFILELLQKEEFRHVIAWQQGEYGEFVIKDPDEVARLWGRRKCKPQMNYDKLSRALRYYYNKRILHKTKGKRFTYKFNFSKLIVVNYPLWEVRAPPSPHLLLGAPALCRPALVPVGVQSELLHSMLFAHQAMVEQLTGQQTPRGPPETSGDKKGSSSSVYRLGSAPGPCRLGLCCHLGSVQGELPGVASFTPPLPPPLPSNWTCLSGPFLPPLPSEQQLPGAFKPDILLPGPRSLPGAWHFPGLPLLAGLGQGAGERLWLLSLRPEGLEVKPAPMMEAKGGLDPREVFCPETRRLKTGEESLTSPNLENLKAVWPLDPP

CAAGAA: the binding signal with FLI1 came out at 1.03; with EHF, 1.04; with SPIB, 0.943; with ETV2, 0.999.

For the sequence AGTGCA, the binding signal in the assay with FLI1 stood at 0.989; in the assay with ETV3L, 1.03.

Regarding AACACT, the binding signal with FLI1 worked out at 1.27; in the assay with EHF, 1.35; with ETV2, 1.26.

Take GTTCCC: the binding signal with FLI1 is 1.36; in the assay with EHF, 1.28; with SPIB it was 1.37; in the assay with ETV2 it was 1.12.

On to ACTCAG, for which the binding signal in the assay with FLI1 stood at 0.986; with EHF it was 0.978; with SPIB it was 0.992; with ETV2, 1.09.

CTAAAT: the binding signal in the assay with FLI1 was 1.34; with EHF, 1.34; with SPIB, 1.38; with ETV2 it was 1.33.

As for CGGCTG, the results for the binding signal with FLI1, with SPIB and in the assay with ETV2 were 0.816, 1.03 and 0.993, respectively.

On to CTGGCA, for which the binding signal with FLI1 was 1.33; in the assay with EHF, 1.23; in the assay with SPIB it was 1.29; in the assay with ETV2 it was 1.49.

Consider ATGCTC, for which the binding signal in the assay with FLI1 worked out at 1.43; with ETV3L, 1.51.

Consider CACTCC, for which the binding signal in the assay with FLI1 came out at 1.27; with EHF, 1.17; in the assay with SPIB it was 1.33; in the assay with ETV2, 1.17.

Consider AGTGAC, for which the figures for the binding signal with FLI1, with EHF and with ETV2 were 1.07, 1.08 and 0.913, respectively.

As to GTCTAA, the binding signal with FLI1 was found to be 1.05; with ETV3L it was 0.981.

Consider AATCCA, for which the binding signal turned out to be 1.09 with FLI1 and 0.974 with ETV3L.

On to TGTGGT, for which the binding signal in the assay with FLI1 was found to be 1.08; in the assay with ETV3L it was 1.04.

With AAGAAG, the binding signal stood at 1.05 with FLI1, 0.949 with SPIB and 1.19 with ETV2.

As for CTGCAG, the binding signal was 1.13 with FLI1 and 1.18 in the assay with ETV3L.

For the sequence ACAACA, the binding signal came out at 1.22 with FLI1, 1.24 with EHF and 1.28 in the assay with ETV2.

On to ACCCCA, for which the binding signal in the assay with FLI1 amounted to 1.05; in the assay with ETV3L, 1.09.

In the case of ATACAT, the binding signal with FLI1 came to 1.31; in the assay with EHF, 1.21; in the assay with ETV2, 1.33.

Regarding TGCGGC, the binding signal was 1.06 with FLI1, 0.953 with SPIB and 0.921 with ETV2.

With GTGTTT, the binding signal in the assay with FLI1 was determined as 1.15; in the assay with SPIB, 1.16; in the assay with ETV2 it was 1.02.

TCGTAT: the binding signal with FLI1 came to 0.996; with ETV3L, 0.944.

CTCGCG: the binding signal was found to be 1.47 with FLI1, 1.32 with EHF, 1.45 with SPIB and 1.39 with ETV2.

As to ATGAAG, the figures for the binding signal in the assay with FLI1, with SPIB and with ETV2 were 1.1, 0.917 and 0.99, respectively.

As for CGTTCC, the binding signal with FLI1 was 1.43; in the assay with EHF it was 1.42; with ETV2, 1.33.

For the sequence ATCTGG, the values for the binding signal with FLI1, in the assay with EHF and in the assay with ETV2 were 1.19, 1.12 and 1.23, respectively.

Regarding ACCATT, the figures for the binding signal in the assay with FLI1, with SPIB and with ETV2 were 1.22, 1.11 and 1.26, respectively.

For the sequence GAAGTG, the binding signal with FLI1 came to 1.46; with ETV3L, 1.53.

With CGACGC, the binding signal amounted to 1.11 with FLI1 and 1.08 in the assay with ETV3L.

Regarding TAATGG, the binding signal in the assay with FLI1 was 1.26; with EHF it was 1.25; with SPIB, 1.37; in the assay with ETV3L, 1.23.

Turning to CGAAAT, the binding signal in the assay with FLI1 came out at 1.05; with ETV3L, 0.972.
